Results are given in words; binding and its absence hold for the method and conditions named. In cells and extracts the contact can be indirect. Some binding calls cover weakened binding; strength is not graded here.
Biological target: apoptosis-associated speck-like protein containing a caspase recruitment domain (ASC) (human (endogenous in A549)) (UniProt Q9ULZ3)
Experiment: co-IP; lysate supernatants of A549 cells exposed to 2 µM BaP for up to four days; anti-ASC antibody (A1170) 2 h at 4°C, Dynabeads Protein-A 1 h at 4°C, washed twice with lysis buffer; immunoblot

Amino acid sequences for entries named in this document (tags omitted).
UniProt Q9ULZ3: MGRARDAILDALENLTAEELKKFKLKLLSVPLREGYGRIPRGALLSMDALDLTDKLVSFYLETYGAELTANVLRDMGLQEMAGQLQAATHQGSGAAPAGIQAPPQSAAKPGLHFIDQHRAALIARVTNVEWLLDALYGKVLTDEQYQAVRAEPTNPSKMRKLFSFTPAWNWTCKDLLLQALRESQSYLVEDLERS

binding: binds
B1: nucleotide-binding oligomerization domain (NOD)-like receptor protein 1 (NLRP1) (protein, UniProt Q9C000 1-1473)
chain: MAGGAWGRLACYLEFLKKEELKEFQLLLANKAHSRSSSGETPAQPEKTSGMEVASYLVAQYGEQRAWDLALHTWEQMGLRSLCAQAQEGAGHSPSFPYSPSEPHLGSPSQPTSTAVLMPWIHELPAGCTQGSERRVLRQLPDTSGRRWREISASLLYQALPSSPDHESPSQESPNAPTSTAVLGSWGSPPQPSLAPREQEAPGTQWPLDETSGIYYTEIREREREKSEKGRPPWAAVVGTPPQAHTSLQPHHHPWEPSVRESLCSTWPWKNEDFNQKFTQLLLLQRPHPRSQDPLVKRSWPDYVEENRGHLIEIRDLFGPGLDTQEPRIVILQGAAGIGKSTLARQVKEAWGRGQLYGDRFQHVFYFSCRELAQSKVVSLAELIGKDGTATPAPIRQILSRPERLLFILDGVDEPGWVLQEPSSELCLHWSQPQPADALLGSLLGKTILPEASFLITARTTALQNLIPSLEQARWVEVLGFSESSRKEYFYRYFTDERQAIRAFRLVKSNKELWALCLVPWVSWLACTCLMQQMKRKEKLTLTSKTTTTLCLHYLAQALQAQPLGPQLRDLCSLAAEGIWQKKTLFSPDDLRKHGLDGAIISTFLKMGILQEHPIPLSYSFIHLCFQEFFAAMSYVLEDEKGRGKHSNCIIDLEKTLEAYGIHGLFGASTTRFLLGLLSDEGEREMENIFHCRLSQGRNLMQWVPSLQLLLQPHSLESLHCLYETRNKTFLTQVMAHFEEMGMCVETDMELLVCTFCIKFSRHVKKLQLIEGRQHRSTWSPTMVVLFRWVPVTDAYWQILFSVLKVTRNLKELDLSGNSLSHSAVKSLCKTLRRPRCLLETLRLAGCGLTAEDCKDLAFGLRANQTLTELDLSFNVLTDAGAKHLCQRLRQPSCKLQRLQLVSCGLTSDCCQDLASVLSASPSLKELDLQQNNLDDVGVRLLCEGLRHPACKLIRLGLDQTTLSDEMRQELRALEQEKPQLLIFSRRKPSVMTPTEGLDTGEMSNSTSSLKRQRLGSERAASHVAQANLKLLDVSKIFPIAEIAEESSPEVVPVELLCVPSPASQGDLHTKPLGTDDDFWGPTGPVATEVVDKEKNLYRVHFPVAGSYRWPNTGLCFVMREAVTVEIEFCVWDQFLGEINPQHSWMVAGPLLDIKAEPGAVEAVHLPHFVALQGGHVDTSLFQMAHFKEEGMLLEKPARVELHHIVLENPSFSPLGVLLKMIHNALRFIPVTSVVLLYHRVHPEEVTFHLYLIPSDCSIRKAIDDLEMKFQFVRIHKPPPLTPLYMGCRYTVSGSGSGMLEILPKELELCYRSPGEDQLFSEFYVGHLGSGIRLQVKDKKDETLVWEALVKPGDLMPATTLIPPARIAVPSPLDAPQLLHFVDQYREQLIARVTSVEVVLDKLHGQVLSQEQYERVLAENTRPSQMRKLFSLSQSWDRKCKDGLYQALKETHPHLIMELWEKGSKKGLLPLSS

Reference: paper PMC10192748
